The term AC50 denotes the concentration giving half of the maximal activity seen. A high value points to activity only at high concentration.

The structures appear in SMILES notation. Some of the results follow. Shown are side measurements of this screen, not its main read-out; they come without a call. Most of these compounds were active or inconclusive in the main read-out, so they are no random draw. Words in brackets tell the shape of the fitted curve; partial curves, single points and poor fits give uncertain potencies.

This test is described as follows: qHTS Assay for Lipid Storage Modulators in Drosophila S3 Cells.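 As to cell number change: cells counted by Cell Tracker Red CMTPX staining in the red channel.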 The following applies: BODIPY lipid droplet fluorescence, 18-24 h; for cell number change: measured here: cell count max response, cells fed with added oleic acid. Put shortly:
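Drosophila S3 cells loaded with oleic acid (400 uM, as added) and compounds at several concentrations; lipid droplets imaged by 488-nm laser-scanning cytometry, 500–530 nm intensity and object ratio to cell channel. Percent activity normalized to 20 uM Triacsin C.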
Background: qHTS replaces the single test concentration by a dilution series.

The mark [1] stands for this setting: measured here: cell number channel AC50, cells fed with added oleic acid.
Setting [2] is: measured here: lipid fluorescence (Fed channel) AC50, cells fed with added oleic acid.

Regarding `O=C1CC(N2CCc3ccccc32)C(=O)N1c1ccccc1` (centres undefined), the cell number change is -30.2%. In addition, the AC50 under setting [1] was 29.1 µM [falling, single point]. The AC50 under setting [2] was 29.1 µM [falling, single point].
On to `Cc1ccc(S(=O)(=O)NNC2=NCCCCC2)cc1`, for which the cell number change was -1.1%. Moreover, the AC50 under setting [1] was 6.51 µM [falling, single point]. Under setting [2], the AC50 was 5.8 µM [falling, full curve].
On to `O=C(NCc1cccnc1)c1cccc(-c2cc3ccccc3oc2=O)c1`, for which the cell number change was -32%. Moreover, the AC50 under setting [1] is 20.6 µM [falling, single point].
For `CCn1c(SCc2nc(CC(=O)Nc3ccccc3OC)no2)nnc1-c1cccs1`, the cell number change is 2.63%.
In the case of `O=C(O)CCCCCN1C(=O)CCC1=O`, the cell number change was determined as 0.136%.
On to `O=S(=O)(Nc1cccc(-c2nc3cccnc3s2)c1)c1ccc2c(c1)CCCC2`, for which the cell number change was 0.204%. Further, under setting [2], the AC50 was 0.82 µM [rising, single point].
Consider `COc1ccc2c(c1)[nH]c1c(N3CCN(Cc4ccc5c(c4)OCO5)CC3)ncnc12`, for which the cell number change was -31.5%. Further, the concentration at half-maximal activity (AC50) under setting [1] was 1.84 µM [falling, partial curve, poor fit]. Further, the AC50 under setting [2] is 0.116 µM [falling, full curve].
Regarding `C[n+]1cccc(O)c1SCc1ccccc1`, the cell number change is 16.4%. Besides, the AC50 under setting [2] was 29.1 µM [falling, single point].
With `CCN1CCN(C(=O)C2CCN(S(=O)(=O)c3ccc(SC)cc3)CC2)CC1`, the cell number change was found to be 15.3%.
For `Cn1c(=O)c2c(O)c([N+](=O)[O-])c(=O)n(C)c2n(C)c1=O`, the cell number change is -18.6%. Further, under setting [2], the AC50 was 6.51 µM [falling, full curve, poor fit].
Turning to `CCCS(=O)(=O)N1CCCC(C(=O)NCCc2ccc(Cl)cc2)C1` (centres undefined), the cell number change was found to be 19.5%.
Consider `Cc1ccc2c(c1)N(CC(=O)N1CCN(c3nc4ccccc4s3)CC1)C(=O)C(C)O2` (centres undefined), for which the cell number change stood at 4.7%. Moreover, the AC50 under setting [2] was 2.31 µM [rising, partial curve].
As to `COc1ccc(S(=O)(=O)N2CCOC2CNC(=O)C(=O)NCCc2c[nH]c3ccccc23)cc1C` (centres undefined), the cell number change came to 11.5%.
For the molecule `CC(=O)OCCOc1nc(N(C)C)nc(N(C)C)n1`, the cell number change stood at 39.9%. For the same molecule, the AC50 under setting [1] is 4.11 µM [rising, full curve]. Also, under setting [2], the half-maximal activity concentration (AC50) is 23.1 µM [rising, single point].
Take `COc1ccc(NC(=S)Nc2ccccc2Cl)cn1`: the cell number change was -8.93%. In addition, the half-maximal activity concentration (AC50) under setting [2] was 3.66 µM [rising, full curve, poor fit].
As for `C=CCNC(=O)c1ccc(CN(c2ccc(OCC)cc2)S(=O)(=O)c2ccc(C)cc2)cc1`, the cell number change amounted to 54.1%. For the same molecule, under setting [1], the AC50 is 29.1 µM [rising, single point].
As for `CCc1ccc(NC(=O)CSc2nnc(Cc3cccn3C)n2-c2ccc(OC)cc2)cc1`, the cell number change was 28.6%.
As to `Cc1cc(=O)oc(C)c1C(=O)Nc1ccc2ncccc2c1`, the cell number change was 47.6%. The AC50 under setting [1] was 18.4 µM [rising, single point]. For the same molecule, the AC50 under setting [2] was 0.058 µM [falling, full curve].
For `COc1ccccc1NC(=O)COc1ccc(C(=O)OCC(=O)N(C(C)C)C(C)C)cc1OC`, the AC50 under setting [1] was 2.06 µM [rising, partial curve] and the AC50 under setting [2] is 1.3 µM [rising, partial curve].
As for `C/C(=N\NC(=O)c1ccc(CN2CCOCC2)cc1)c1ccc(NC(=O)c2ccccc2)cc1`, the cell number change is 26.2%.
`O=C(CCCc1c[nH]c2ccccc12)NCCc1c[nH]c2ccccc12`: the cell number change is 21.8%. The AC50 under setting [2] was 18.4 µM [rising, single point].
In the case of `CCCNc1ncccc1C(N)=O`, the cell number change was -40.3%. Besides, the AC50 under setting [1] was 3.66 µM [falling, full curve]. The AC50 under setting [2] is 5.17 µM [falling, single point].
On to `CSc1cccc(NC(=O)c2cc(S(=O)(=O)N3CCCC3)cn2C)c1`, for which the cell number change is -38.6%. In addition, under setting [1], the AC50 is 16.4 µM [falling, partial curve, poor fit].
As for `O=C(NCc1cccs1)C(=O)NCC1OCCCN1S(=O)(=O)c1ccc(F)cc1` (centres undefined), the cell number change is 25.5%.
`COCCCNC(=O)Cn1c(=O)n(CC(=O)NCCc2ccc(OC)c(OC)c2)c(=O)c2sccc21`: the cell number change is 24%. For the same molecule, the AC50 under setting [2] is 20.6 µM [rising, single point].
For `CCOc1ccccc1NC(=O)COC(=O)c1cc(C(=O)OC)cc([N+](=O)[O-])c1`, the cell number change is 16.7%. In addition, under setting [2], the AC50 is 10.3 µM [rising, partial curve, poor fit].
For `COCCCNC(=O)c1cc(C(=O)c2ccccc2Br)c[nH]1`, the cell number change was 16.8%.
Turning to `CC(C)c1ccc(NC(=S)N2CCN(Cc3ccccc3)CC2)cc1`, the half-maximal activity concentration (AC50) under setting [2] was 0.103 µM [falling, full curve, poor fit].
Regarding `O=C(c1cncs1)N1CCCC(CNS(=O)(=O)c2cccs2)C1` (centres undefined), the cell number change is -9.24%. Under setting [1], the AC50 is 0.146 µM [falling, full curve, poor fit].
As for `CC(C)[C@H](NC(=O)c1ccccc1)C(=O)OCC(=O)c1ccccc1F`, under setting [2], the concentration at half-maximal activity (AC50) is 6.51 µM [rising, partial curve, poor fit].
In the case of `Cc1cc(C(=O)CN2C(=O)C(=O)N(CC(C)C)C2=O)c(C)n1C1CC1`, the cell number change was -0.367%. Also, the AC50 under setting [2] is 0.82 µM [falling, single point].
Take `Cc1ccc(N/C(SCc2ccccc2C)=C(/C#N)C(=O)NCc2ccco2)cc1C`: the cell number change amounted to 10.3%. For the same molecule, under setting [2], the AC50 is 6.51 µM [rising, single point].
As for `O=C(OCC1OC2C(Oc3nc(=O)ccn32)C1O)c1ccccc1` (centres undefined), the cell number change was found to be 10.1%. Besides, the AC50 under setting [2] is 8.2 µM [falling, partial curve].
Take `Cc1onc(-c2ccccc2)c1C(=O)N/N=C/C=C/c1ccccc1`: the cell number change was 30.1%. The AC50 under setting [1] is 5.17 µM [rising, full curve, poor fit]. Besides, under setting [2], the AC50 is 0.291 µM [rising, full curve].
Turning to `O=C(NC(NC(=S)Nc1c(Cl)cccc1Cl)C(Cl)(Cl)Cl)c1cccc([N+](=O)[O-])c1` (centres undefined), the AC50 under setting [2] was 4.11 µM [falling, partial curve].
In the case of `O=C(NC1CCCCC1)c1cccc(S(=O)(=O)N2CCOCC2)c1`, the AC50 under setting [1] is 6.51 µM [falling, single point].
Consider `CC1CCCN(C(=O)CN(C)S(=O)(=O)c2ccc3c(c2)c(=O)n(C)c(=O)n3C)C1` (centres undefined), for which the cell number change stood at 2.59%. Besides, the AC50 under setting [1] was 0.58 µM [falling, full curve]. Also, the AC50 under setting [2] was 18.4 µM [falling, partial curve].
As for `CCOc1ccc(NC(=O)NNC(=O)C(C)Oc2ccccc2OC)cc1` (centres undefined), the cell number change was 22.2%. The AC50 under setting [2] was 9.2 µM [rising, partial curve, poor fit].
As to `O=C(Nc1ccc(Cn2nnc3ccccc32)cc1)c1ccco1`, the cell number change was -30.7%. The half-maximal activity concentration (AC50) under setting [1] is 29.1 µM [falling, single point]. In addition, the AC50 under setting [2] was 4.11 µM [rising, full curve].
Take `Cc1cnc(C(=O)OCC(=O)NC2CCCCC2)cn1`: the cell number change amounted to 1.97%.
With `O=C(COC(=O)C1COc2ccccc2O1)Nc1cccc(S(=O)(=O)N2CCCCC2)c1` (centres undefined), the cell number change is -74%. Further, the concentration at half-maximal activity (AC50) under setting [1] is 14.6 µM [falling, partial curve, poor fit]. Under setting [2], the AC50 was 23.1 µM [falling, partial curve].
With `Cc1cccc(NC(=O)CN(C)C(=O)c2ccc3ccccc3n2)c1C`, the AC50 under setting [1] was 0.517 µM [rising, partial curve].
For `OC(C#Cc1ccccn1)c1cccs1` (centres undefined), the cell number change was -59.9%. For the same molecule, the AC50 under setting [1] was 20.6 µM [falling, single point]. The AC50 under setting [2] is 29.1 µM [falling, single point].
`O=C(Nc1ccccc1O)c1c(O)c2c([nH]c1=O)CCCC2`: the cell number change is -49.4%. Moreover, the AC50 under setting [1] is 25.9 µM [falling, single point].
Turning to `O=C(CSc1cn[nH]n1)Nc1ccccc1C(=O)O`, the cell number change came out at 11.8%.
Consider `Cc1cccc(C)c1NC(=S)N/N=C1\CC2CC=CC12` (centres undefined), for which the AC50 under setting [1] is 6.51 µM [rising, single point].
In the case of `CCc1ccc(NS(=O)(=O)c2ccc3[nH]cc(C(=O)NCC4CCCO4)c(=O)c3c2)cc1` (centres undefined), the cell number change turned out to be 3.91%. Also, the AC50 under setting [1] was 6.51 µM [rising, single point].
For the molecule `O=C(NCc1ccccn1)c1cccc(NS(=O)(=O)c2cccc(F)c2)c1`, the cell number change is -0.738%. The AC50 under setting [2] is 11.6 µM [rising, partial curve, poor fit].
Take `Nc1ncc(-n2cncn2)c(-c2ccc(Cl)cc2)n1`: the cell number change is -12.9%.
On to `Clc1ccc(-c2cc(C3CCNCC3)[nH]n2)c(Cl)c1`, for which the cell number change is 33.5%. Also, the AC50 under setting [1] is 29.1 µM [rising, single point].
Turning to `CCNC(=O)C(=O)c1c(-c2ccccc2)[nH]c2ccccc12`, the cell number change is -32.8%. Also, the AC50 under setting [1] was 0.259 µM [falling, full curve, poor fit]. The AC50 under setting [2] is 0.326 µM [falling, full curve, poor fit].
Consider `Cc1ccc(SCc2nc(-c3ccccc3)no2)cc1`, for which the cell number change was -5.95%. Besides, the AC50 under setting [2] is 8.2 µM [falling, partial curve].
`CCOc1ccc(OCC)c(S(=O)(=O)N2CCCCC2C)c1` (centres undefined): the cell number change was -9.53%.
Consider `COc1ccc(S(=O)(=O)N2CCN(Cc3ccc4c(c3)OCO4)CC2)cc1`, for which the cell number change is -2.56%. For the same molecule, the concentration at half-maximal activity (AC50) under setting [1] is 1.64 µM [rising, partial curve, poor fit]. Further, the AC50 under setting [2] was 5.17 µM [falling, single point].
In the case of `Cc1cc(S(=O)(=O)Nc2ccc3cn[nH]c3c2)c(C)cc1Cl`, the cell number change was 5.24%. Moreover, the AC50 under setting [2] is 0.231 µM [rising, full curve, poor fit].
On to `CN1CCN(c2nc(N3CCN(c4ccccc4)CC3)ncc2F)CC1`, for which the cell number change amounted to 2.7%. Further, under setting [2], the AC50 is 23.1 µM [rising, single point].
`O=C(NC(=S)NNC(=O)c1cccs1)c1ccc(Br)o1`: the AC50 runs as follows: under setting [1], 0.13 µM [falling, full curve, poor fit]; under setting [2], 0.58 µM [falling, single point].
As for `CNC(=O)c1ccccc1-c1cn(C)c2ccccc2c1=O`, the cell number change came out at 22.6%.
With `O=C(O)COc1c(-c2ccccc2)oc2ccccc2c1=O`, the AC50 under setting [2] is 20.6 µM [falling, partial curve].
For `CN(c1ccc(C(=O)NC2CC2)cc1)S(=O)(=O)c1ccccc1`, the cell number change came to 11.4%.
With `NS(=O)(=O)c1ccc(NC(=O)c2cccc(Cl)c2)cc1`, the cell number change was -35.5%. Moreover, the AC50 under setting [1] was 6.51 µM [falling, full curve, poor fit]. In addition, the AC50 under setting [2] was 6.51 µM [falling, single point].

(Values after PubChem BioAssay AID2685 (National Center for Advancing Translational Sciences (NCATS), 2010).)
